System: transduced T cells
Experiment: CER T cell product characterisation by flow cytometry (Tim-4, CD45RA, CCR7, CD4/CD8)
Type: cell-based
Conditions: day 6 following transduction

B1: CER 1183: wildtype human Tim4, SEQ ID NO:20; control molecule lacking intracellular T-cell signaling domains (protein)
chain: MSKEPLILWLMIEFWWLYLTPVTSETVVTEVLGHRVTLPCLYSSWSHNSNSMCWGKDQCPYSGCKEALIRTDGMRVTSRKSAKYRLQGTIPRGDVSLTILNPSESDSGVYCCRIEVPGWFNDVKINVRLNLQRASTTTHRTATTTTRRTTTTSPTTTRQMTTTPAALPTTVVTTPDLTTGTPLQMTTIAVFTTANTCLSLTPSTLPEEATGLLTPEPSKEGPILTAESETVLPSDSWSSVESTSADTVLLTSKESKVWDLPSTSHVSMWKTSDSVSSPQPGASDTAVPEQNKTTKTGQMDGIPMSMKNEMPISQLLMIIAPSLGFVLFALFVAFLRGKLMETYCSQKHTRLDYIGDSKNVLNDVQHGREDEDGLFTL
- Tim4+, %: 69.4%

Reference: US20250127896A1, “CHIMERIC TIM4 RECEPTORS AND USES THEREOF” (CERO THERAPEUTICS HOLDINGS, INC., priority 2021, published 2025)
